Measurements from patent publication US10213527B2, “Functionalized titanium binding peptides and implants coated with same” (Ben-Gurion University of the Negev Research and Development …, priority 2012, dated 2019).
Where “and” joins values, the source holds several entries; their conditions need not be identical. Equal values may be shown once. Non-standard residues stand in square brackets, D forms with d. Residues, ends and D or L forms follow the SMILES beside them. pS = N[C@@H](COP(=O)(O)O)C(=O)O

Tests used:
[1] = XPS analysis of peptide on TiO2 slides (early stages of mineralization, 40 min in SBF)
Procedure: (§1) Revised simulated body fluids (SBF) solution was prepared according to Oyane et. al., with the following ion concentrations: Na^+ 142 mM, K^+ 5 mM, Mg^2+1.5 mM, Ca^2+ 2.5 mM, Cl^− 103 mM, HCO3^− 27 mM, HPO4^2− 1 mM SO4^2− 0.5 mM.
TiO2 Surface Preparation: as described in Catherine D. Reyes, Timothy A. Petrie, Kellie L. Burns, Zvi Schwarts and Andres J. Garcia. (2007) Biomaterials 28(21): 3228-323.
Surfaces were prepared by Thermal Evaporation—microscope slides were coated with pure 99.9% Ti particles to 40 nm thickness. Oxide layer was promoted by heating the slides for 8 hours on 180° C.
XPS Analysis of Peptide on TiO2 (Early Stages of Mineralization):
Shown are the XPS atomic ratios of TiO2, peptide diluted in TBS bonded on TiO2, peptide diluted in BCS bonded on TiO2 and all the slides after 40 minutes in SBF1.5 (c).

[2] = ICP-MS of calcium and phosphate in peptide coated samples soaked in SBF for 11 days; settings: 11 days in SBF
Procedure: FIG. 9. Calcium and phosphate ion concentration detected in peptide coated samples that were soaked in SBF for 11 days. The samples were withdrawn from SBF after 11 days and immediately washed with ethanol to remove residual solution. The dried samples were then soaked in 0.1 M HCl to dissolve all the mineral and samples of the acidic solution were measured by ICP for calcium, phosphate and potassium ions (the latter were in negligible concentrations). […] Noteworthy, in these experiments the titanium oxide surface itself induces mineralization too. […] In addition, phosphate ions from the solution may coordinatively bind to the titanium and induce mineralization. Nevertheless, the peptide coating is expected to improve the binding strength between the mineralized layer and the titanium substrate.
as §1
Inductively Coupled Plasma Mass Spectrometry (ICP-MS) Results
The results are illustrated in FIG. 9 and Table 4 herein below.

[3] = Adsorption isotherm onto TiO2 particles, Sips equation fitting; assay type: binding; settings: 10 mM TBS pH 7.4; for α, Sips constant of binding energy distribution (row 'A' of Table 5): Sips fit; for nominal area each peptide occupies (inverse of Smax): on TiO2 particles
Procedure: The adsorption of all three peptides to TiO2 particles were measured with peptides solution in a range of concentrations from 0.002 to 0.524 mM in 10 mM TBS solution. TiO2 particles were suspended in TBS 10 mM, pH 7.4, to a final concentration of 1.8 mg/ml. To each test tube containing 0.5 ml of peptide at different concentrations, 0.5 ml of TiO2 particles solution was added. The samples were continuously mixed with a tube rotator for 1 h at room temperature. To precipitate the TiO2 particles, the test tubes were centrifuged at 5000 rpm for 3 minutes and the absorption of the supernatant was measured at 280 nm using a microplate-reader (BioTek instruments). Peptide concentration was determined based on calibration curve of each peptide prepared in TBS solution. In order to describe the adsorption of molecules on TiO2 particles surface the sips equation, also known as the Langmuir-Freundlich equation (1), was used:
[formula] where S is the amount of adsorbed molecules (mol m^−2), Smax is the maximum amount of molecules adsorbed (mol m^−2), C is their concentration is solution at equilibrium (mM), k is the association coefficient (M^−1) and α is the constant representing this distribution.^30
Peptide adsorption and desorption conditions were characterized by HPLC. A column was packed with micrometer size particles of the TiO2 anatase phase (see Materials and Methods). Tris buffer saline (TBS), pH 7.4, served as a loading buffer. […] The salt ions expected to have an electrostatic repulsion screening effect and make negatively charge TiO2 surface more accessible for the negatively charged peptides to generate coordinative bonds that require short range interaction distance^42. The elutions used conditions were consecutive linear gradients of sodium bicarbonate (0-200 mM, pH7.4) and NaOH (0-0.1M). The bicarbonate ions may bind by coordinative bonds to the oxide surface, similar to the way phosphate ions can be bound to the surface. Yet the binding strength of the bicarbonate ions to TiO2 is weaker than that of phosphate ions^43. […] The tailing peaks shape of pSer and β-cpSer together with the small eluted volume during the void volume of the column probably indicates on impurity of the peptides' powders or secondary interactions of the peptides with the column. Those secondary interactions may occur as a result of different orientation of the phosphate groups at the TiO2 binding surface. […] Therefore, adsorption isotherm to micro-size titanium oxide particles was performed in order to characterize the extent of interactions between the peptides and the oxide (FIGS. 15A-C). The data was fitted to Sips equation (eq.1). Sips isotherms is a combined form of Langmuir and Freundlich expressions and it relies on the assumption that there are a distribution of binding energies of the sites of a surface, this distribution is represented by α. When α→1 Sips equation reduces to Langmuir equation and represents binding of a monolayer with homogenous binding energy and small α values together with low concentrations reduces Sips equation to Freundlich equation with a potential to saturation at high concentrations (unlike the original Freundlich equation). Therefore, fitting peptides adsorption isotherm data to Sips equation give us an insight into their binding energy distributions. Fitting the collected data to Sips equation (continuous line at FIGS. 15A-C and Table 5 herein below) yields α=0.8 for pSer peptide and α=0.4 for control peptides, cpSer and β-cpSer. Table 5 contains the Sips equation values for the three peptides and the standard deviation values (SD).

[4] = peptide in BCS bonded on TiO2, after 40 min in SBF
[5] = peptide in TBS bonded on TiO2, after 40 min in SBF

With `O=C(O)CC[C@H](NC(=O)[C@H](CCC(=O)O)NC(=O)[C@H](CCC(=O)O)NC(=O)[C@H](CCC(=O)O)NC(=O)[C@H](CCC(=O)O)NC(=O)CNC(=O)CNC(=O)CNC(=O)[C@H](Cc1c[nH]c2ccccc12)NC(=O)[C@H](COP(=O)(O)O)NC(=O)[C@H](Cc1c[nH]c2ccccc12)NC(=O)[C@H](COP(=O)(O)O)NC(=O)[C@@H]1CCCN1)C(=O)O` [PpSer, Pro-pSer-Trp-pSer-Trp-(Gly)3-(Glu)5] (H-P[pS]W[pS]WGGGEEEEE-OH; N-terminus and C-terminus assumed) the “XPS atomic ratio C/P” value [1, 4] was 132.06, the “XPS atomic ratio Ca/P” value [1, 4] was 1.80 and the “XPS atomic ratio C/P” value ([1]; peptide in BCS bonded on TiO2 slides, before SBF) was 181.28. For the same compound, the “XPS atomic ratio C/P” value [1, 5] was 36.84, the “XPS atomic ratio Ca/P” value [1, 5] was 0.835 and the “XPS atomic ratio C/P” value ([1]; peptide in TBS bonded on TiO2 slides, before SBF) was 29.95. The “amounts of Ca,P by ICP” value ([2]; surface + peptide TBS compared to surface + peptide BCS) was “lower amounts of Ca,P”, the “Ca/P ratio by ICP” value ([2]; surface + peptide coated in CBS) was 1.46 and the “Ca/P ratio by ICP” value ([2]; surface + peptide coated in TBS) was 1.38.

For “Pro-pSer-Phe-pSer-Trp-(Gly)3 (PSFSWGGG; phosphoserines; (2)..(2) Phosphorylated residue; (4)..(4) Phosphorylated residue) [cpSer, control peptide lacking the stretch of the Glu residues]”, the “α, Sips constant of binding energy distribution (row 'A' of Table 5)” value (“α, Sips constant” below) [3] was 0.4 and 0.41 and the “nominal area each peptide occupies (inverse of Smax)” value (“nominal area each peptide occupies” below) [3] was ~422 A^2 molec^−1.

In the case of “Pro-Ser(phos)-Ser(phos)-Phe-Trp-(Gly)3 (PSSFWGGG; phosphoserines; (2)..(3) Phosphorylated residue) [β-cpSer]”, the “α, Sips constant” value [3] was 0.4 and 0.42 and the “nominal area each peptide occupies” value [3] was ~221 A^2 molec^−1.

With “Pro-Ser(phos)-Phe-Ser(phos)-Trp-(Gly)3-(Glu)5 (PSFSWGGGEEEEE; phosphoserines; (2)..(2) Phosphorylated residue; (4)..(4) Phosphorylated residue) [pSer]” the “α, Sips constant” value [3] was 0.8 and 0.79 and the “nominal area each peptide occupies” value [3] was ~498 A^2 molec^−1.
